Taken from: PubChem BioAssay AID1671195 (Yale University, 2021)

Screen: 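Genes whose knockdown alters LDL uptake in liver cancer cells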 (primary screen)
Cells: human Huh7 hepatoma cells
Knock-down reagent: siRNA pool against human genes, 18 nM
Time to read-out: about 2 to 2.5 days of knockdown, then 8 h LDL uptake
Treatment: DiI-labelled LDL at 30 µg/ml for 8 h, in lipoprotein-deficient serum medium
Read-out: 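Per-cell DiI-LDL intensity by automated imaging; well means scaled to the plate median and given as a robust z-score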
Direction: robust z-score: higher = more LDL uptake after knockdown
Call rule: 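a gene counts as active if at least two replicate z-scores exceed ±2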
This is an unselected part of about 22,000 reagents. Over the whole deposit, about 1,510 (6.9%) were called active. 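Active includes knockdowns raising or lowering LDL uptake; positive z-scores mean more uptake, negative mean less.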 A number with no mark means an inactive call. Reagent sequences are not shown.

The first 2 records, ahead of the listing:
| target gene | PubChem SID | robust z-score, replicate 1 | robust z-score, replicate 2 | robust z-score, replicate 3 |
| --- | --- | --- | --- | --- |
| OR8J1 | SID442895826 | -0.145 | -0.279 | -0.207 |
| OR2A25 | SID442892427 | 0.366 | 0.037 | 0.103 |

The listing, repeating the preview:
| target gene | PubChem SID | robust z-score, replicate 1 | robust z-score, replicate 2 | robust z-score, replicate 3 |
| --- | --- | --- | --- | --- |
| OR8J1 | SID442895826 | -0.145 | -0.279 | -0.207 |
| OR2A25 | SID442892427 | 0.366 | 0.037 | 0.103 |
| CPEB3 | SID442895280 | -0.413 | 0.0326 | -0.0786 |
| PTGIR | SID442903604 | -1.22 | -1.5 | -1.28 |
| TMEM41A | SID442889075 | 0.553 | 0.821 | 0.474 |
| SLC47A1 | SID442889389 | 1.06 | -0.347 | 0.988 |
| PDE6B | SID442901842 | -1.22 | -0.584 | -1.11 |
| HNRNPKP1 | SID442904111 | -1.6 | -1.33 | -1.57 |
| CTSO | SID442884599 | -0.3 | -0.336 | 13.8 |
| VGF | SID442900943 | -0.815 | -1.06 | -0.618 |
| LOC401155 (retired record) | SID442884039 | 2.1 (active) | 2.1 | 1.92 |
| RASIP1 | SID442893564 | -0.0361 | -0.254 | 0.395 |
| METTL13 | SID442904328 | -2.22 | -1.22 | -1.32 |
| RPL27A | SID442897963 | -0.548 | -0.784 | -0.00133 |
| CNTNAP3 | SID442900515 | -0.69 | -0.654 | -0.968 |
| DSCR9 | SID442886294 | 0.992 | 1.38 | 1.23 |
| RNF180 | SID442886117 | 0.981 | 1.69 | 1.12 |
| ABHD11 | SID442900313 | -0.71 | -0.796 | -0.727 |
| COX5A | SID442893901 | -0.14 | 0.307 | -0.172 |
| GDF6 | SID442893612 | -0.0578 | -0.0191 | 0.167 |
| BSDC1 | SID442895752 | -0.833 | -0.769 | 0.995 |
| GCC1 | SID442886212 | 0.84 | 1.26 | 1.59 |
| ITGA3 | SID442895492 | 0.00423 | -0.862 | 0.335 |
| SACK1C | SID442891742 | 0.629 | 0.597 | -0.477 |
| TCP11L2 | SID442898377 | -0.589 | -0.511 | -0.375 |
| ZBTB17 | SID442892647 | 0.515 | 0.0738 | -0.165 |
| LOC389288 (retired record) | SID442901710 | -0.73 | -1.2 | -0.906 |
| FDXR | SID442890913 | 0.0285 | 1.01 | 0.0253 |
| LOC388297 (retired record) | SID442888735 | 0.404 | 0.776 | 0.832 |
| YLPM1 | SID442900656 | -0.276 | -1.31 | -0.775 |
| MKS1 | SID442883432 | 2.6 (active) | 3.34 | 2.8 |
| LOC441128 (retired record) | SID442896906 | -0.0693 | -0.535 | -0.37 |
| SLFN5 | SID442893221 | -0.663 | 0.983 | -0.0945 |
| PIM2 | SID442884690 | 2.87 | 1.68 | 1.36 |
| VPS51P8 | SID442903000 | -1.13 | -1.31 | -1.14 |
| SNRPB | SID442896787 | -0.293 | -0.414 | -0.233 |
| MUSTN1 | SID442883391 | 2.82 (active) | 3.22 | 3.08 |
| RPL36 | SID442901702 | -1.32 | -0.768 | -0.746 |
| IPPK | SID442891099 | 1.49 | -0.506 | 0.00849 |
| SYMPK | SID442885812 | 1.39 | 1.22 | 1.48 |
| POF1B | SID442901069 | -0.741 | -1.06 | -0.736 |
| RNF11 | SID442890390 | 0.265 | 0.258 | 0.746 |
| ARPP19 | SID442883509 | 3.83 (active) | 2.96 | 1.49 |
| LOC728626 | SID442897834 | -0.432 | -0.378 | -0.48 |
| UBE2I | SID442903718 | -0.871 | -1.85 | -1.38 |
| AMZ2 | SID442897412 | -0.17 | -0.28 | -0.698 |
| GALNT15 | SID442894040 | -0.0279 | -0.194 | 0.162 |
| PHLDB3 | SID442903422 | -1.44 | -1.22 | -1.21 |
| C1orf162 | SID442887159 | 0.819 | 0.809 | 1.29 |
| PCNT | SID442900460 | -0.51 | -1.6 | -0.175 |
| TYW1 | SID442903789 | -0.807 | -1.12 | -2.25 |
| FUT1 | SID442891185 | 0.503 | -0.0579 | 0.514 |
| HMSD | SID442887829 | 0.886 | 0.469 | 1.15 |
| CADPS2 | SID442893023 | 0.157 | 0.157 | -0.0277 |
| KRT79 | SID442891411 | -0.000615 | 0.565 | 0.306 |
| EBPL | SID442888160 | 1.31 | 0.909 | 0.102 |
| SLIRP | SID442898588 | -0.235 | -0.427 | -0.887 |
| SRARP | SID442883544 | 2.12 (active) | 1.86 | 4.16 |
| CSRP2 | SID442903950 | -1.84 | -0.889 | -1.6 |
| LOC144962 (retired record) | SID442890671 | 0.526 | -0.53 | 1.16 |
| GATM | SID442885019 | 2.32 | 1.34 | 1.51 |
| KIF22 | SID442888858 | 0.852 | 1.06 | 0.0369 |
| STXBP5 | SID442897298 | -1.38 | 0.00868 | 0.256 |
| NDUFA13 | SID442896318 | 0.908 | -0.0306 | -1.65 |
| ELOC | SID442886724 | 1.11 | 0.793 | 1.33 |
| ZC3H10 | SID442889188 | 0.826 | -0.187 | 1.16 |
| OR9A2 | SID442895330 | 0.0129 | -0.173 | -0.316 |
| PROX1 | SID442892557 | 0.00503 | -0.0562 | 0.505 |
| ABHD8 | SID442888743 | 0.888 | 0.291 | 0.828 |
| EVI5 | SID442896855 | -0.722 | -0.0953 | -0.144 |
| HPGDS | SID442885997 | 1.87 | 0.351 | 1.66 |
| LOC442423 (retired record) | SID442888446 | 0.227 | 1.11 | 0.816 |
| LOC389081 (retired record) | SID442894266 | -0.26 | 0.00124 | 0.127 |
| KIAA1755 | SID442898706 | -0.672 | -0.328 | -0.586 |
| SPDL1 | SID442896950 | -0.412 | -0.882 | 0.305 |
| GALNT7 | SID442884251 | -2.02 (active) | -0.177 | -2.03 |
| MTFR1 | SID442897031 | -0.179 | -0.169 | -0.67 |
| LOC730133 | SID442890851 | 0.808 | 0.481 | -0.201 |
| LTAP1 | SID442900333 | -0.901 | -0.509 | -0.83 |
| FAM107B | SID442893825 | 0.125 | 0.22 | -0.325 |
| ERBIN | SID442892634 | 0.0633 | -0.254 | 0.618 |
| SAT1 | SID442890902 | -0.0358 | 0.701 | 0.403 |
| ZNF768 | SID442901927 | -1.08 | -1.18 | -0.682 |
| MTMR6 | SID442889189 | 0.464 | 0.765 | 0.566 |
| CDH8 | SID442898180 | -0.345 | -0.56 | -0.506 |
| RPRM | SID442900713 | -0.771 | -0.234 | -1.38 |
| SNX29P2 | SID442889669 | 0.618 | -0.0288 | 0.988 |
